Measurements from paper PMC5069723.
These are yes or no findings as the source states them, for the method shown. Binding seen in cells or lysates may run through a third protein. Some binding calls cover weakened binding; strength is not graded here.

Protein sequences, listed by entry. Tags and fused reporters are not part of them. Residues count along the entry.
UniProt P84022, residues 232-425: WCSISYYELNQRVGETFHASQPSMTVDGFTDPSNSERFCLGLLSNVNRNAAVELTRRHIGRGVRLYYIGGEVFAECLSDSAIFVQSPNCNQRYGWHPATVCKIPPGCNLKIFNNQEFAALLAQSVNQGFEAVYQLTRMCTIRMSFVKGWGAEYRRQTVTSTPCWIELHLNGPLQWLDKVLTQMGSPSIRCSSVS

Target: MH2 domain of Smad3 (Smad3 C) (human) (UniProt P84022)
Assay: co-IP; H1299 cells transiently transfected, 24 h; lysates immunoprecipitated with an anti-FLAG antibody, complexes eluted with 3xFLAG peptide, immunoblotted

binding: binds
Substance: p53 (from UniProt P04637 1-393)
